This assay can be described thus: qHTS Assay to Find Inhibitors of Chronic Active B-Cell Receptor Signaling. The conditions noted are these: ABC-DLBCL IkBa-CBG/CBR reporter, luminescence ratio (green luciferase fused to IkBa over red control in TMD8 lymphoma cells), 4 h. Summed up: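 Concentration-response series (up to 46 uM) were applied to TMD8 dual-reporter cells for 4 h at 37C with doxycycline. Green/red ratio, after filter-overlap correction, defined %Activity; red signal alone was normalised to basal cells and zero luminescence.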

The mark [1] stands for this setting: measured here: CBR red luminescence, cell number.
Setting [2] is: measured here: IkBa-CBG green luminescence.

The list shows a part of the results. Shown are side measurements of this screen, not its main read-out; they come without a call. Most of these compounds were active or inconclusive in the main read-out, so they are no random draw. Words in brackets tell the shape of the fitted curve; partial curves, single points and poor fits give uncertain potencies.

For orientation: AC50 means the concentration at which the activity in the assay is half-maximal. Consider `CCOC(=O)CCC(=O)NNC(=O)c1ccc(NC(=O)c2ccccc2)cc1`, for which the AC50 under setting [1] was 28.2 µM [falling, single point].

For `O=C(NC1CCCc2ccccc21)c1ccc(Br)cc1` (stereo unspecified), under setting [1], the AC50 is 29.1 µM [falling, single point].

Consider `COc1ccccc1-c1cc(C(=O)Nc2cccnc2Cl)no1`, for which, under setting [1], the AC50 was 0.1 µM [falling, full curve].

In the case of `N/C(=N\OC(=O)c1ccc(Br)o1)c1ccccn1`, the AC50 under setting [1] is 7.08 µM [falling, partial curve, poor fit].

As to `CC(C)(c1ccccc1)c1ccc(OCC(O)CNC2CCN(Cc3ccccc3)CC2)cc1` (stereo unspecified), the AC50 under setting [1] is 35.5 µM [falling, single point].

In the case of `COc1ccc(/C=N/NC(=O)c2cccnc2)cc1`, the AC50 under setting [1] was 7.08 µM [falling, full curve].

For `Clc1ccc(OCc2nnc(-c3ccccc3Br)o2)c(Cl)c1`, the AC50 under setting [1] was 0.708 µM [rising, full curve, poor fit].

For `O=C(NNc1nc2ccccc2s1)Nc1ccccc1`, the AC50 under setting [1] was 29.1 µM [falling, single point].

As to `CCn1c(=O)cc(SCC(=O)NCC2CCCO2)c2ccccc21` (stereo unspecified), the AC50 under setting [1] is 2.59 µM [rising, full curve, poor fit].

For the compound `COC(=O)Cn1c(=NC(=O)c2nc3ccccc3s2)sc2cc(S(C)(=O)=O)ccc21`, the AC50 under setting [1] is 7.31 µM [rising, partial curve].

In the case of `Cc1nn(Cc2cccc(C(=O)NN)c2)c(C)c1Cl`, the AC50 under setting [1] is 7.08 µM [falling, partial curve].

For `CC(NCc1cc(Br)ccc1OCC(=O)NCc1ccccc1)c1ccccc1` (stereo unspecified), under setting [1], the AC50 is 15.8 µM [falling, single point].

Take `C/C(=N\NC(=O)c1ccc(O)cc1)c1cccc(NC(=O)c2ccccc2C)c1`: under setting [1], the concentration at half-maximal activity (AC50) is 0.708 µM [falling, full curve].

Turning to `COc1cccc(CNS(=O)(=O)c2ccc3c(c2)CC(C)N3C(=O)C2CC2)c1` (stereo unspecified), the AC50 under setting [1] is 3.16 µM [falling, partial curve, poor fit].

In the case of `C/C(=N\Nc1nc(Nc2ccccc2)nc(N2CCOCC2)n1)c1cccs1`, under setting [1], the AC50 was 11.2 µM [falling, partial curve, poor fit].

With `Cc1ccc2c(-c3csc(N)n3)c[nH]c2c1`, the AC50 under setting [1] was 15.8 µM [falling, partial curve, poor fit].

As to `CCOc1ccc(C2=C/C(=C/c3cccnc3)C(=O)O2)cc1`, the AC50 under setting [1] was 25.9 µM [rising, partial curve, poor fit].

For `COc1cc(/C=C(\C#N)C(=O)Nc2ccccc2C(=O)O)cc(Cl)c1OC`, under setting [1], the AC50 was 35.5 µM [falling, single point].

As to `CC1(O)CC(c2ccc(Cl)cc2)=NN1C(=O)c1ccc([N+](=O)[O-])cc1` (stereo unspecified), under setting [1], the AC50 was 3.55 µM [falling, partial curve, poor fit].

Consider `O=[N+]([O-])c1ccc(O)c(/C=N/Nc2ccccc2Cl)c1`, for which the AC50 under setting [1] is 11.2 µM [falling, partial curve].

`Cn1ccnc1SCC(=O)c1ccc([N+](=O)[O-])cc1`: under setting [1], the AC50 is 15.8 µM [rising, partial curve, poor fit].

As for `Cc1ccc(NC(=O)c2oc3ccccc3c2C)c([N+](=O)[O-])c1`, the AC50 under setting [1] was 5.62 µM [rising, full curve, poor fit].

Take `C=CCn1c(SCC(=O)NCc2ccco2)nc2ccccc2c1=O`: under setting [1], the AC50 is 11.2 µM [falling, partial curve].

For the compound `CCN(CC)CCn1c2ccccc2c2cnc(N)c(C#N)c21`, under setting [1], the AC50 is 3.55 µM [falling, partial curve, poor fit].

Take `COc1ccc(CCNc2ccc(C)cc2)cc1`: the AC50 under setting [1] was 8.2 µM [rising, partial curve, poor fit].

As to `COc1ccc(OC)c(S(=O)(=O)NC2CC2)c1`, the half-maximal activity concentration (AC50) under setting [1] is 6.31 µM [rising, partial curve, poor fit].

As for `c1ccc(-c2cc3n(c2)CCc2ccccc2-3)cc1`, under setting [1], the AC50 is 29.1 µM [falling, single point].

With `CNC(=O)C(C)NS(=O)(=O)c1ccc(F)cc1` (stereo unspecified), the AC50 under setting [1] was 3.26 µM [rising, single point].

With `O/N=C/c1ccnc(SCc2ccccc2)n1`, under setting [1], the concentration at half-maximal activity (AC50) is 0.355 µM [rising, partial curve, poor fit].

For the compound `CSc1cccc(NC(=O)N2CCc3ccc(NC(=O)c4ccccn4)cc3C2)c1`, under setting [1], the AC50 was 35.5 µM [falling, single point].

With `CCOc1ccccc1NC(=O)CSc1nnc(CNC(=O)c2cccs2)o1`, the AC50 under setting [1] is 31.6 µM [falling, partial curve, poor fit].

Take `CC(C)C(=O)NNC(=O)CSc1nnc(-c2ccccc2)c(-c2ccccc2)n1`: the AC50 under setting [1] was 3.55 µM [rising, single point].

As for `CCCCCCC(=O)Nc1nc(C)c(-c2csc(Nc3cc(Cl)ccc3C)n2)s1`, under setting [1], the AC50 is 8.91 µM [falling, partial curve].

As to `CNc1nc(N)c([N+](=O)[O-])c(Nc2cccc(Cl)c2)n1`, under setting [1], the AC50 is 3.98 µM [rising, full curve, poor fit].

As for `O=C(CCSc1nc(-c2ccco2)cc(C(F)(F)F)n1)NCc1cccs1`, the AC50 under setting [2] is 23.1 µM [rising, partial curve, poor fit].

As for `Cc1ccc(-n2c(C)csc2=N)cc1`, under setting [1], the AC50 was 29.1 µM [rising, single point].

For `CC(C)CNC(=O)/C=C/c1cccs1`, the AC50 under setting [1] is 25.9 µM [falling, single point].

As for `COC(=O)c1sccc1NC(=S)N1CC(C)CC(C)C1` (stereo unspecified), the AC50 under setting [1] was 6.51 µM [rising, partial curve].

With `Cc1ccc(-c2csc3ncnc(N4CCN(c5ccccc5O)CC4)c23)cc1`, the AC50 under setting [1] was 0.316 µM [rising, full curve, poor fit].

On to `Cc1nn(-c2nc3ccccc3s2)c(N)c1-c1ccc(Cl)cc1`, for which, under setting [1], the AC50 was 18.4 µM [rising, partial curve].

As to `O=C1N[C@@H](Cc2ccccc2)C(=O)N2[C@H]1C[C@]1(Br)c3ccccc3N(S(=O)(=O)c3ccccc3)[C@H]21`, the AC50 runs as follows: under setting [1], 16.4 µM [falling, single point]; under setting [2], 32.6 µM [rising, partial curve, poor fit].

With `Clc1ccc(OCc2nc(-c3ccncc3)no2)c(Br)c1`, the AC50 under setting [1] is 4.61 µM [rising, full curve].

As to `COc1nc(-c2ccccc2)cc(-c2ccc(OC)c(OC)c2)n1`, the AC50 under setting [1] is 5.8 µM [falling, full curve, poor fit].

`COCCOc1ccc(C(F)(F)F)cc1NC(=O)c1ccc(C)cc1`: under setting [1], the AC50 was 18.4 µM [rising, partial curve, poor fit].

As for `CCOc1ccc(-n2c(C)nc(O)c2N=Nc2ccccc2)cc1`, the AC50 under setting [1] is 2.51 µM [rising, partial curve, poor fit].

Take `CCCc1ccc2oc(C(=O)N(Cc3ccncc3)CC3CCCO3)c(C)c2c1` (stereo unspecified): under setting [1], the AC50 was 11.2 µM [falling, single point].

With `CCCC(CCC)=NNC(=O)c1ccccc1F`, under setting [1], the AC50 is 7.94 µM [falling, partial curve].

With `O=C(Nc1ccncc1)c1ccc(Cl)c(S(=O)(=O)N2CCc3ccccc32)c1`, under setting [1], the AC50 is 6.51 µM [falling, partial curve].

With `Cc1cccn2c(=O)c(/C=C(\C#N)C(=O)NCc3ccco3)c(N3CCOCC3)nc12`, the AC50 under setting [1] is 0.1 µM [falling, full curve, poor fit].

As to `COc1ccc(C2=NOC3(CC(=O)N(c4ccc(F)cc4)C3=O)C2)cc1` (stereo unspecified), the AC50 under setting [1] was 35.5 µM [falling, single point].

In the case of `C#CCOCCOCCOCCNc1nc(N2CCN(C(=O)[C@H]([C@@H](C)CC)n3cc([C@@H](N)Cc4ccc(O)cc4)nn3)CC2)nc(N2CCN(C(=O)[C@H](CCCCN)n3cc([C@@H](N)CO)nn3)CC2)n1`, the AC50 under setting [1] was 0.562 µM [rising, full curve, poor fit].

Take `COc1ccc(-c2csc(NC(=O)Cc3cc(OC)c(OC)c(OC)c3)n2)cc1OC`: the AC50 under setting [1] was 35.5 µM [falling, single point].

In the case of `CN(C)/C=C/C(=O)c1cnc(-c2ccccc2)s1`, the AC50 under setting [1] was 35.5 µM [falling, single point].

On to `CC(C)c1[nH]nc2c1C(C1C=CCCC1)C(C#N)=C(N)O2` (stereo unspecified), for which the AC50 under setting [1] is 0.282 µM [falling, full curve, poor fit].

Take `CCCn1c(N)c(C(=O)COC(=O)c2cccc(S(=O)(=O)N3CCOCC3)c2)c(=O)[nH]c1=O`: the AC50 under setting [1] was 20.6 µM [rising, single point].

For the compound `O=C(CNC(=O)c1ccco1)N=Nc1c(O)[nH]c2ccc([N+](=O)[O-])cc12`, the AC50 under setting [1] is 0.562 µM [falling, full curve, poor fit].

As to `CN(/N=C/c1cc(Cl)ccc1O)C1=NS(=O)(=O)c2ccccc21`, the AC50 under setting [1] is 11.2 µM [rising, partial curve, poor fit].

For `COC(=O)[C@H]1CN(C(=O)c2ccccc2)C(=O)N1`, the AC50 under setting [1] is 0.708 µM [rising, full curve, poor fit].

`CCCCNc1ncnc2c1cnn2Cc1ccc(Cl)cc1`: the AC50 under setting [1] was 3.16 µM [rising, full curve, poor fit].

As to `COc1ccc(NC(=O)/C=C/c2ccc(F)cc2)cn1`, the AC50 under setting [1] is 29.1 µM [falling, single point].

As for `Cn1c(-c2csc(-c3ccccc3)n2)n[nH]c1=S`, under setting [2], the AC50 was 17.8 µM [falling, single point].

Take `O=S(=O)(c1ccc(NC(=S)N/N=C/c2c3ccccc3cc3ccccc23)cc1)N1CCOCC1`: the AC50 under setting [1] was 10 µM [rising, partial curve, poor fit].

Turning to `CN(C)C(=O)c1ccc(NC(=O)c2ccc(-c3ccc(Cl)cc3)o2)cc1`, the AC50 under setting [1] was 29.1 µM [falling, single point].

As to `O=C(OCn1ncc(Br)c(Br)c1=O)c1c(F)cccc1F`, the AC50 by setting is: under setting [1], 3.66 µM [falling, full curve]; under setting [2], 4.61 µM [rising, full curve, poor fit].

The values above are taken from PubChem BioAssay AID493014 (National Center for Advancing Translational Sciences (NCATS), 2011).
